For 1 compound, ratio change, negative = inhibition results are on record in PubChem BioAssay AID1487 (National Center for Advancing Translational Sciences (NCATS), 2009).

What follows is the remainder of the data, with few or none of the hits. Results filed as inconclusive are left out. Activity calls are given as the source filed them. The call rests on the fitted dose curve; in most records, active means well fitted inhibition curve with a large enough effect in the signal ratio, with a control signal flat (not every such curve was filed as active); inconclusive means small, poorly fitted or top-dose-only effect, or effect the other way, or a change in a side signal; inactive means flat fitted curve, though single readings scatter; the % refers to the signal ratio.
On the % scale 0 is the no-effect control and ±100 the full control effect.

This assay can be described thus: qHTS Assay for Modulators of Lamin A Splicing. The settings on record: HeLa LMNA splicing GFP/RFP minigene ratio, 48 h; at 46.1 µM (top of the series). An excerpt: NCGC Assay Overview: Hutchinson-Gilford Progeria Syndrome (HGPS) is a pediatric premature aging disease caused by a spontaneous mutation in the lamin A/C (LMNA) gene. The mutation activates a cryptic splice site in the LMNA pre-mRNA which results in production of a pre-lamin A protein that cannot be processed properly. The mutant protein accumulates in the nucleus and negatively affects numerous cellular functions. Correction of the splicing defect in HGPS patient cells using a targeted oligonucleotide (exo11) leads to reversal of the cellular disease phenotypes. […] References: Bowen, W. P.; Wylie, P. G. Application of Laser-Scanning Fluorescence Microplate Cytometry in High Content Screening. […]
NCGC Assay Protocol Summary: Reagents/Controls: Stable clones expressing DsRed2 and lamin A-EGFP were generated by Cell and Molecular Technologies in S3 HeLa cells. […] The cells were counted and resuspended in Opti-MEM I (no phenol red; Gibco), 2% FBS, 1% penicillin/ streptomycin (Gibco) at concentration of 120 cells/uL concentration. […] Following incubation the plates were read on the Acumen Explorer using the 488 nm laser. […] The ratio of the total object intensity in PMT1 (500-530 nm emission; GFP) over PMT3 (575-640 nm emission; RFP) was calculated for analysis. […]
(Quantitative high-throughput screening tests each substance at several concentrations.)
Regarding `CN1C2CCC1CC(OC(=O)C(O)c1ccccc1)C2` (stereo unspecified), the ratio change, negative = inhibition is inactive: -18.6%.
